Reference: patent US12516015B2 (AMALIVE LIMITED, priority 2009, dated 2026)
Like-named read-outs stand apart in the source and are kept apart here.

Legend:
[1] = Evaporation
[2] = not given; remark: listed apart in the source

SMILES: NCCC[C@H](N)C(=O)O.O=C(O)Cc1ccccc1 [L-ornithine phenyl acetate]
- approximated solubility (remaining solvent systems (organic solvents, some with 1% H2O)): substantially insoluble
- approximated solubility (water): exhibited a solubility in water
- Results (crystalline form) ([1]; Test 4, cyclohexanone): Form V
- Results (crystalline form) ([1]; Test 15, ethanol/acetone (50:50)): Form II
- Results (crystalline form) ([1]; Test 26, acetic acid): Form II
- Results (crystalline form) ([1]; Test 37, 1-propanol): Form II
- Results (crystalline form) ([1]; Test 48, dimethylcarbonate): Form II
- Results (crystalline form) ([1]; Test 59, NMP): Form II
- Results (crystalline form) ([1]; Test 70, etOAc/cyclohexane (1:2)): Form II
- Results (crystalline form) ([1]; Test 81, etOAc/toluene (1:2)): Form II
- Results (crystalline form) ([1]; Test 92, IPA/diisopropyl ether (1:2)): Form II
- Results (crystalline form) ([1]; Test 103, DIPE): Form II
- Results (crystalline form) ([1]; Test 114, nitromethane/water (20%)): Form II
- Results (crystalline form) ([1]; Test 125, acetone/water (20%)): Form II
- Results (crystalline form) ([1]; Test 136, 1,4 dioxane/water (20%)): Form II
- Results (crystalline form) ([1]; Test 147, diethyl ether): Form II
- Results (crystalline form) ([1]; Test 158, ethylene glycol): No Solid
- Results (crystalline form) ([1]; Test 169, meOAc/water (20%)): Form II
- Results (crystalline form) ([1]; Test 180, meOH/acetone (50:50)): Form II
- Results (crystalline form) ([1]; Test 191, DMF): Form II
- Results (crystalline form of precipitate) ([1]; Test 202, solvent 2-butanol): Form II
- Results (crystalline form of precipitate) ([1]; Test 213, solvent cumene): Form II
- Results (crystalline form of precipitate) ([1]; Test 224, solvent ethyl formate): Form II
- Results (crystalline form of precipitate) ([1]; Test 235, solvent isobutyl acetate): No Solid
- Results (crystalline form of precipitate) ([1]; Test 246, solvent 3-methyl-1-butanol): Form II
- Results (crystalline form of precipitate) ([1]; Test 257, solvent anisole): Form II
- Results (crystalline form of precipitate) ([1]; Test 268, solvent IPA/isopropyl acetate (1:2)): Form II
- Results (crystalline form of precipitate) ([1]; Test 279, solvent EtOH: 1% H20): No Solid
- Results (crystalline form of precipitate) ([1]; Test 290, solvent EtOH: 3% H20): No Solid
- Results (crystalline form of precipitate) ([1]; Test 301, solvent EtOH: 5% H20): Form II
- Results (crystalline form of precipitate) ([1]; Test 312, solvent IPA: 1% H20): No Solid
- Results (crystalline form of precipitate) ([1]; Test 323, solvent IPA: 3% H20): No Solid
- Results (crystalline form of precipitate) ([1]; Test 334, solvent IPA: 5% H20): Form II
- Results (crystalline form of precipitate) ([1]; Test 345, solvent ACN: 1% H20): Form II
- Results (crystalline form of precipitate) ([1]; Test 356, solvent ACN: 6% H20): Form II
- Results (crystalline form of precipitate) ([1]; Test 367, solvent ACN: 12% H20): Form II
- Results (crystalline form of precipitate) ([1]; Test 378, solvent DMF: 5% H20): No Solid
- Results (crystalline form of precipitate) ([1]; Test 389, solvent DMF: 15% H20): No Solid
- Results (crystalline form of precipitate) ([1]; Test 400, solvent DMF: 30% H20): Form II
- Results (crystalline form of precipitate) ([1]; Test 411, 1,4-dioxane: 1% H20): No Solid
- Results (crystalline form of precipitate) ([1]; Test 422, 1,4-dioxane: 3% H20): Form II
- Results (crystalline form of precipitate) ([1]; Test 433, 1,4-dioxane: 10% H20): Form II
- Results (crystalline form of precipitate) ([1]; Test 444, MeOH: 5% H20): Form II
- Results (crystalline form of precipitate) ([1]; Test 455, MeOH: 20% H20): Form II
- Results (crystalline form of precipitate) ([1]; Test 466, MeOH: 50% H20): No Solid
- Results (crystalline form of precipitate) ([1]; Test 477, THF: 1% H20): Form II
- Results (crystalline form of precipitate) ([1]; Test 488, THF: 3% H20): No Solid
- Results (crystalline form of precipitate) ([1]; Test 499, THF: 5% H20): Form II
- Results (crystalline form of precipitate) ([1]; Test 510, butan-1-ol: 1% H20): Form II
- Results (crystalline form of precipitate) ([1]; Test 521, butan-1-ol: 3% H20): Form II
- Results (crystalline form of precipitate) ([1]; Test 532, butan-1-ol: 5% H20): Form II
- Results (crystalline form of precipitate) ([1]; Test 541, 1,4-dioxane): Form I/II
- Results (crystalline form of precipitate) ([1]; Test 544, 1-butanol): Form I/II
- Results (crystalline form of precipitate) ([1]; Test 547, ethanol): Form II
- Results (crystalline form of precipitate) ([1]; Test 550, acetone): Form II
- Results (crystalline form of precipitate) ([1]; Test 553, benzonitrile): Form II
- Results (crystalline form of precipitate) ([1]; Test 556, cyclohexane): Form II
- Results (crystalline form of precipitate) ([1]; Test 559, DCM): Form II
- Results (crystalline form of precipitate) ([1]; Test 562, DMSO): Form II/II
- Results (crystalline form of precipitate) ([1]; Test 565, EtOAc): Form II
- Results (crystalline form of precipitate) ([1]; Test 568, Heptane): Form I/II
- Results (crystalline form of precipitate) ([1]; Test 571, IPA): Form I/II
- Results (crystalline form of precipitate) ([1]; Test 574, IPA: Water (1%)): Form II
- Results (crystalline form of precipitate) ([1]; Test 577, MeCN): Form II
- Results (crystalline form of precipitate) ([1]; Test 580, MeCN: Water (1%)): Form I/II
- Results (crystalline form of precipitate) ([1]; Test 583, MEK): Form I/II
- Results (crystalline form of precipitate) ([1]; Test 586, MeOAc): Form II
- Results (crystalline form of precipitate) ([1]; Test 589, MeOH): Form I/II
- Results (crystalline form of precipitate) ([1]; Test 592, MIBK): Form II
- Results (crystalline form of precipitate) ([1]; Test 595, Nitromethane): Form II
- Results (crystalline form of precipitate) ([1]; Test 598, TBME): Form II
- Results (crystalline form of precipitate) ([1]; Test 601, THF): Form II
- Results (crystalline form of precipitate) ([1]; Test 604, THF: water (1%)): Form I/II
- Results (crystalline form of precipitate) ([1]; Test 607, toluene): Form II
- Results (crystalline form of precipitate) ([1]; Test 610, water): Form I/II
- Results (crystalline form) ([2]; Test 2, Controlled Cool (4° C.), cyclohexanone): No Solid
- Results (crystalline form) ([2]; Test 3, Controlled Cool (−21° C.), cyclohexanone): Form V
- Results (crystalline form) ([2]; Test 13, Controlled Cool (4° C.), ethanol/acetone (50:50)): No Solid
- Results (crystalline form) ([2]; Test 14, Controlled Cool (−21° C.), ethanol/acetone (50:50)): Form III
- Results (crystalline form) ([2]; Test 24, Controlled Cool (4° C.), acetic acid): No Solid
- Results (crystalline form) ([2]; Test 25, Controlled Cool (−21° C.), acetic acid): No Solid
- Results (crystalline form) ([2]; Test 35, Controlled Cool (4° C.), 1-propanol): Form II
- Results (crystalline form) ([2]; Test 36, Controlled Cool (−21° C.), 1-propanol): Form II
- Results (crystalline form) ([2]; Test 46, Controlled Cool (4° C.), dimethylcarbonate): No Solid
- Results (crystalline form) ([2]; Test 47, Controlled Cool (−21° C.), dimethylcarbonate): Form II
- Results (crystalline form) ([2]; Test 57, Controlled Cool (4° C.), NMP): Form II
